Experimental data published in the supplement of paper PMC12823440, “Inhibitors supercharge kinase turnover through native proteolytic circuits” (Nature, 2025).
Structures can show the parent of a compound that is named as a salt. Some of the results follow. Hit calls seldom repeat between salt and free forms of one compound.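 In K562 cells expressing nanoluciferase-fused kinases, luminescence was recorded at 4 h intervals between 2 and 18 h, normalized as percent of control with DMSO at 100% and a positive control at 0%. A significant (2 sigma) signal drop marks a time point as decreased. The authors' rule for a hit is not shown and takes in more than the number of time points.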

Sequences of proteins named here, by UniProt entry; tags and fusion partners are left off. A change or cut given only in a name is not applied to a line headed by its entry.
UniProt Q16288, whole entry, looked up: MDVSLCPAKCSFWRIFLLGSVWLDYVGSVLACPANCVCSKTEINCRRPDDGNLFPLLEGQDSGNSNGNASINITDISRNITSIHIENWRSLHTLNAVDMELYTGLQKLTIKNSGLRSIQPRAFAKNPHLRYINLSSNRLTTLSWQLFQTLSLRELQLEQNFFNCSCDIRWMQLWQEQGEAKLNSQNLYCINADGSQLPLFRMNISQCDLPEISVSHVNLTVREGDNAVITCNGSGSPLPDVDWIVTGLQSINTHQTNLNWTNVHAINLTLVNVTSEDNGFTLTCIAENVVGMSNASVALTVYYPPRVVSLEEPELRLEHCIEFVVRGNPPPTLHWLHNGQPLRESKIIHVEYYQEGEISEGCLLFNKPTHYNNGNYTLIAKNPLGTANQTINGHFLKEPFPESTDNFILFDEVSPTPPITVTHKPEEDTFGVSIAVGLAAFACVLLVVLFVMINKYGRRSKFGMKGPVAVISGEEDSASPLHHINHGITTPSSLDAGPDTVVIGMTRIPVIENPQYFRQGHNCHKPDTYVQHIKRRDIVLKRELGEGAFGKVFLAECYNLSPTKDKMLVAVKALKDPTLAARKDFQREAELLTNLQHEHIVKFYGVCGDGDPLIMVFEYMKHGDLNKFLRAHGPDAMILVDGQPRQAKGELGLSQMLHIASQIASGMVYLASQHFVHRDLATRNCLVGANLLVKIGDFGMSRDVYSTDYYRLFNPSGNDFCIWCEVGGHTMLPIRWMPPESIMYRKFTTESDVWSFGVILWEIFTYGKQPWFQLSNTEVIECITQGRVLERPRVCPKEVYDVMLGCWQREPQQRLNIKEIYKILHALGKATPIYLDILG
UniProt O96013: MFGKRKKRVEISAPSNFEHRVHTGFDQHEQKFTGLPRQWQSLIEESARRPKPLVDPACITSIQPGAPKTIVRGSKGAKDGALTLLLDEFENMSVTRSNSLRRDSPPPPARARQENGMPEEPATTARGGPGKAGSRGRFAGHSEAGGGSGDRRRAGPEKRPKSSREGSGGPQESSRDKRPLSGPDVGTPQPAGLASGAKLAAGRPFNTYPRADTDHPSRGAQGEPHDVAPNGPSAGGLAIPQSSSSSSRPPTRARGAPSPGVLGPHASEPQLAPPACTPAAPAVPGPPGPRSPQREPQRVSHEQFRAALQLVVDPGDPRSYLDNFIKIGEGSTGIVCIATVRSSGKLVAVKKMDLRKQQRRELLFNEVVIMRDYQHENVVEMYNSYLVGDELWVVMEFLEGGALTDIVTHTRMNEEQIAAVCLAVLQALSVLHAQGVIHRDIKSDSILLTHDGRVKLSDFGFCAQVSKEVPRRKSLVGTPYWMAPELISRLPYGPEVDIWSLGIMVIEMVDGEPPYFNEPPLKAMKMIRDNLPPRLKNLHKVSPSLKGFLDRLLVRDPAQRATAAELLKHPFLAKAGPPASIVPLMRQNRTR
UniProt Q96KB5: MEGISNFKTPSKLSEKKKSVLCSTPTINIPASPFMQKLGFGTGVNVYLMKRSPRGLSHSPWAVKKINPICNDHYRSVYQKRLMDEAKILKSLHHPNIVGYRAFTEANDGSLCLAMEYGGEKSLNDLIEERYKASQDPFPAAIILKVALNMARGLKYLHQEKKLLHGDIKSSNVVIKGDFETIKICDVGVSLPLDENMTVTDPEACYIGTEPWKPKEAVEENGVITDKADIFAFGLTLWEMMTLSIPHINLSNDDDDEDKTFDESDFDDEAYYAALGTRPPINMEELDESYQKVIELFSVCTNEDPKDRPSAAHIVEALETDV
UniProt Q15118, whole entry, looked up: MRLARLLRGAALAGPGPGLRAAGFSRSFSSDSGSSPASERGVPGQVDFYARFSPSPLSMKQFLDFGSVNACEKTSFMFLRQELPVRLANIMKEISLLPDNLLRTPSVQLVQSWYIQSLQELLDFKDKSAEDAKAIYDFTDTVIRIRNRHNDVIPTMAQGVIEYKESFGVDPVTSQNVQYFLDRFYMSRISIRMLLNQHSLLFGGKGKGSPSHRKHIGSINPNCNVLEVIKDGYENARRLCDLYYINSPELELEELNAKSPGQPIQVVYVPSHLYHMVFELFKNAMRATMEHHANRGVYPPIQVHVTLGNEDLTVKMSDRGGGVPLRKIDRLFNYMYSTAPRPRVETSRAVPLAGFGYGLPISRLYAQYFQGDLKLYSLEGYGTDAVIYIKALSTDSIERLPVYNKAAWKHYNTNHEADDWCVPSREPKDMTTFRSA
UniProt O15530: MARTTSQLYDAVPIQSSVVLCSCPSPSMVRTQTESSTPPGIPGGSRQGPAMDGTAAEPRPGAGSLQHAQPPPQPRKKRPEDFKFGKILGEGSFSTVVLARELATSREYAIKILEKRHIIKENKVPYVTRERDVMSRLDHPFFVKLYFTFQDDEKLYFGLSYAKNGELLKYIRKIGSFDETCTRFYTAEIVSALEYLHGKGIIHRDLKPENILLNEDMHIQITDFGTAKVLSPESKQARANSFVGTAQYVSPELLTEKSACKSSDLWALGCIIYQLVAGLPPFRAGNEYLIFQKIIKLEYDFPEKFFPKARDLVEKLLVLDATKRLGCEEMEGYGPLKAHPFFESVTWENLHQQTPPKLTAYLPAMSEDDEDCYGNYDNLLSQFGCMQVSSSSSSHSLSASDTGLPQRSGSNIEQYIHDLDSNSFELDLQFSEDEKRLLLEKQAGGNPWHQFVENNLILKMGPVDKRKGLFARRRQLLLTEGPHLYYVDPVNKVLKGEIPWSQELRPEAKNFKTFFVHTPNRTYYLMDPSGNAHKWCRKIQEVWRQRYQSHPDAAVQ
UniProt P42356, whole entry, looked up: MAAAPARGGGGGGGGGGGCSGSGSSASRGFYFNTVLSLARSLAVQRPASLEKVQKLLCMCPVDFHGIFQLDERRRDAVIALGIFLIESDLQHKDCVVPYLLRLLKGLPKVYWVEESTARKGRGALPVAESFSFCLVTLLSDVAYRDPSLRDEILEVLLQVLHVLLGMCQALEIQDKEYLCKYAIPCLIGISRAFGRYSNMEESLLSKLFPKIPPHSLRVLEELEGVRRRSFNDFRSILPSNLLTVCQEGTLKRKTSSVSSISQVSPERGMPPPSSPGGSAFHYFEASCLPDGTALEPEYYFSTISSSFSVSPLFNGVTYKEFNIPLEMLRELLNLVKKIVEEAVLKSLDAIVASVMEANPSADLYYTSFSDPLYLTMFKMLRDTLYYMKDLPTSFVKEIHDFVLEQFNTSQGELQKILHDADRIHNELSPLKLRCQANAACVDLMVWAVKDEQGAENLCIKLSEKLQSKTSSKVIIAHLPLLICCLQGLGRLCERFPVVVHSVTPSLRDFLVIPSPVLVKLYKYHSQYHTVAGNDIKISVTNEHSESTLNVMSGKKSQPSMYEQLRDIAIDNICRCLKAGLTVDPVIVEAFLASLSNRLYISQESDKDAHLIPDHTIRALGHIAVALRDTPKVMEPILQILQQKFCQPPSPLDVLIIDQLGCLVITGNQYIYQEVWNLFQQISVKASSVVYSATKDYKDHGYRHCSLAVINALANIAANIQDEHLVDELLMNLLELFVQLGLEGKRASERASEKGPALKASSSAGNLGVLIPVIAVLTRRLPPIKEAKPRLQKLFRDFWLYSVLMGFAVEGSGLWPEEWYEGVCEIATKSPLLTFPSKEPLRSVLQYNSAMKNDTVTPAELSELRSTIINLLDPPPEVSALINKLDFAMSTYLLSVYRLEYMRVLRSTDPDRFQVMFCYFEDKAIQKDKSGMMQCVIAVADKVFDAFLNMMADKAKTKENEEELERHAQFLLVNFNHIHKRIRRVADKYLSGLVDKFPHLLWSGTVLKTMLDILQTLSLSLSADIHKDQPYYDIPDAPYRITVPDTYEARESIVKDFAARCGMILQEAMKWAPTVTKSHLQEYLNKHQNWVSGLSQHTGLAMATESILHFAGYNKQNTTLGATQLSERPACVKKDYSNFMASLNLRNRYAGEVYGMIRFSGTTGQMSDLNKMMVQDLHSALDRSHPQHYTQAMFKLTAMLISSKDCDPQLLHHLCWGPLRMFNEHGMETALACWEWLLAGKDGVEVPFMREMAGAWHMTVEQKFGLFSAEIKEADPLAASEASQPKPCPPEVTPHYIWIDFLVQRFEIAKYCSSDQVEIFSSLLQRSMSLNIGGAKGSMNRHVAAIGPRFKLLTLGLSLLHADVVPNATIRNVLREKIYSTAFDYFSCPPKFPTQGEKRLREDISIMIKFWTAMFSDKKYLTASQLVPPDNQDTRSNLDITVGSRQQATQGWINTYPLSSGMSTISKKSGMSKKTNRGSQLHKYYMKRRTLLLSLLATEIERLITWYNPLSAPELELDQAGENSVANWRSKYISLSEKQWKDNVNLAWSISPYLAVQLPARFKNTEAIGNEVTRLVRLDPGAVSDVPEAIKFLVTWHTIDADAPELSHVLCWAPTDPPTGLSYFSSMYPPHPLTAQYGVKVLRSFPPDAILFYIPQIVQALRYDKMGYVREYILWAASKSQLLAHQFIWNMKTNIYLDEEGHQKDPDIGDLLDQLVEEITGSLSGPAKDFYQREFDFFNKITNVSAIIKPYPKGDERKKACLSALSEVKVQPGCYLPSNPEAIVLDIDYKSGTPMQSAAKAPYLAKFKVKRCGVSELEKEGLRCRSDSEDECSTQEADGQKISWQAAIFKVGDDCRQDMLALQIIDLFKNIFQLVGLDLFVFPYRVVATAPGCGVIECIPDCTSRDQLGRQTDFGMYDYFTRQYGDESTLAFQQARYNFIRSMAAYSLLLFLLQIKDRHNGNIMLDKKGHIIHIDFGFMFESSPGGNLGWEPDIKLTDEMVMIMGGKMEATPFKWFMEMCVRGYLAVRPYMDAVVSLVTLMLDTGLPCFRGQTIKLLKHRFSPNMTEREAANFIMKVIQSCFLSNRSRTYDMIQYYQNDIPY
UniProt Q9UBF8: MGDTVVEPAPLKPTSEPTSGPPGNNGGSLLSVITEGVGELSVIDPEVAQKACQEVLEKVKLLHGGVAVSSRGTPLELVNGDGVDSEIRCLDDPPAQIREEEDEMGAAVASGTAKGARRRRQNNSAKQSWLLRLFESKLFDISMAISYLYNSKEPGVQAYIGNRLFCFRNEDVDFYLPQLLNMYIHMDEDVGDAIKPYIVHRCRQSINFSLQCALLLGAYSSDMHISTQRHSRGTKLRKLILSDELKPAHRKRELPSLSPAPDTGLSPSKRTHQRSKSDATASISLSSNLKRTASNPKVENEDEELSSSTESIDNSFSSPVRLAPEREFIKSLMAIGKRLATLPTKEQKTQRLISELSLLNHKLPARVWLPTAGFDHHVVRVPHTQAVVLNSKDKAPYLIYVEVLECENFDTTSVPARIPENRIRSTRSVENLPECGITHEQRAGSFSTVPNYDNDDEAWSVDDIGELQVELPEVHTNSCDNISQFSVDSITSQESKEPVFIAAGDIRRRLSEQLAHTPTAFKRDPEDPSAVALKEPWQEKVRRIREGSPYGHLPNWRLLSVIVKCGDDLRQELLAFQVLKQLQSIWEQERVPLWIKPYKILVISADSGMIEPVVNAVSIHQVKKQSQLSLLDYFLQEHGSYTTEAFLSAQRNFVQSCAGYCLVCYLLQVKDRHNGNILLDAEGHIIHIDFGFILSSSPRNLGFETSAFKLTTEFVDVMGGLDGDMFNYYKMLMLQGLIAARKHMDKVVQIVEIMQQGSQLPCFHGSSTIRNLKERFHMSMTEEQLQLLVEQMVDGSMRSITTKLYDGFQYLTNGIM
UniProt P53350, whole entry: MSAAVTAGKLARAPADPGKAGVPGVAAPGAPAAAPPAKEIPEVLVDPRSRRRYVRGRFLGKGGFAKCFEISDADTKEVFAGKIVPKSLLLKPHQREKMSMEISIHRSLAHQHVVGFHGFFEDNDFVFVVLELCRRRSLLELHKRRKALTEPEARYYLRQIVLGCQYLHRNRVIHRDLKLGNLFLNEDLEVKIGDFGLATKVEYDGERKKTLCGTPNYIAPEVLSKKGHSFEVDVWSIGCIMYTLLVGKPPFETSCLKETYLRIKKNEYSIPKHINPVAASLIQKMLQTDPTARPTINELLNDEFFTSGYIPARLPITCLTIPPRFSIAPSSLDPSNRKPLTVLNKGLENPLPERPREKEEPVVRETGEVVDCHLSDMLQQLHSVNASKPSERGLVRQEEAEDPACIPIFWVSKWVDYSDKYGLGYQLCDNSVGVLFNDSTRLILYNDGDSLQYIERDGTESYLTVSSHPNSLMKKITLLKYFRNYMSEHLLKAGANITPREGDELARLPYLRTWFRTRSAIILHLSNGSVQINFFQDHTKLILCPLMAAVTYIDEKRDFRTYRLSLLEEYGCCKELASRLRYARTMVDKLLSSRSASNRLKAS

Key:
Test in all cases: number of time points (of 5) at which kinase-Nluc abundance scored as decreased, DMSO-normalised (count); higher = more persistent destabilization
Conditions in all cases: K562; 2-18 h
NTRK3 = NTRK3 (UniProt Q16288)
PAK4 = PAK4 (UniProt O96013)
PBK = PBK (UniProt Q96KB5)
PDGFRB = PDGFRB (UniProt P09619)
PDK1 = PDK1 (UniProt Q15118)
PDPK1 = PDPK1 (UniProt O15530)
PIK4CA = PIK4CA (UniProt P42356)
PIK4CB = PIK4CB (UniProt Q9UBF8)
PLK1 = PLK1 (UniProt P53350)
PRKAA1 = PRKAA1 (UniProt Q13131)

| Structure (SMILES) | number of time points (NTRK3) | number of time points (PAK4) | number of time points (PBK) | number of time points (PDGFRB) | number of time points (PDK1) | number of time points (PDPK1) | number of time points (PIK4CA) | number of time points (PIK4CB) | number of time points (PLK1) | number of time points (PRKAA1) |
| --- | --- | --- | --- | --- | --- | --- | --- | --- | --- | --- |
| Cc1cc(-c2ccnc(Nc3cnn(C)c3)n2)ccc1CNC(=O)N1CC(OC(C)C)C1 (10 µM) | 0 | 0 | 0 | 0 | 0 | 0 | 0 | 0 | 0 | 0 |
| Cc1ccn2c(C(=O)C(=O)c3ccccc3)c(-c3ccccc3)nc2c1 (10 µM) | 0 | 0 | 0 | 0 | 0 | 0 | 0 | 0 | 0 | 0 |
| C=CC(=O)Nc1cc(-n2c(=O)ccc3cnc4ccc(-c5ccc(NS(C)(=O)=O)cc5)cc4c32)ccc1C (10 µM) | 0 | 0 | 0 | 0 | 0 | 0 | 0 | 0 | 0 | 0 |
| Oc1ccc(/C=C/c2cc(O)cc(O)c2)cc1 [Resveratrol] (10 µM) | 0 | 0 | 0 | 0 | 0 | 0 | 0 | 0 | 0 | 0 |
| NC(=O)c1cnc2[nH]ccc2c1N[C@@H]1[C@@H]2CC3C[C@H]1C[C@@](O)(C3)C2 [Peficitinib] (10 µM) | 0 | 0 | 0 | 0 | 0 | 1 | 0 | 2 | 0 | 0 |
| COc1cc2ncnc(Nc3ccccc3)c2cc1OC (10 µM) | 0 | 0 | 0 | 0 | 0 | 0 | 0 | 0 | 0 | 0 |
| CCCCCCCCCCCCCCCCOP(=O)([O-])OCC[N+](C)(C)C [Miltefosine] (10 µM) | 0 | 0 | 0 | 0 | 0 | 0 | 0 | 0 | 0 | 0 |
| Cc1nc(-c2cnn(C)c2)nc2c1[nH]c1ncc(-c3ccc(N4CCN(C)CC4)cc3)cc12 [GNE 220 (hydrochloride)] (10 µM) | 0 | 0 | 0 | 0 | 0 | 0 | 0 | 0 | 0 | 0 |
| COc1c(Nc2cc(C)[nH]n2)nc(Sc2ccc(S(=O)(=O)Cc3cccc([N+](=O)[O-])c3F)cc2F)nc1N1CCCCC1 [Centrinone-B] (2.5 µM) | 0 | 0 | 0 | 0 | 0 | 0 | 0 | 0 | 0 | 0 |
| O=C1NC(=Nc2c(Cl)cccc2Cl)S/C1=C\c1ccc2nccnc2c1 (2.5 µM) | 5 | 0 | 0 | 2 | 0 | 1 | 0 | 0 | 0 | 0 |
| Oc1cc(O)c2c(c1)OC1(c3ccc(O)c(O)c3)Oc3cc(O)c4c(c3C2C1O)OC(c1ccc(O)c(O)c1)C(O)C4 (stereo not given) [Procyanidin A1] (10 µM) | 0 | 0 | 0 | 0 | 0 | 0 | 0 | 0 | 0 | 0 |
| C[C@H](NC(=O)[C@H]1NCC[C@@H]1O)c1ccc(-c2noc(CCC3CCCC3)n2)cc1 (10 µM) | 0 | 0 | 0 | 0 | 0 | 0 | 0 | 0 | 0 | 0 |
| c1cc(NC2CCNCC2)nc(-c2cnc3ccccn23)c1 [IRAK inhibitor 1] (10 µM) | 0 | 0 | 0 | 0 | 0 | 0 | 0 | 0 | 0 | 1 |
| O=c1cc(-c2cccc3c2Sc2ccccc2S3)oc(N2CCOCC2)c1 (10 µM) | 0 | 0 | 0 | 0 | 0 | 0 | 0 | 0 | 0 | 0 |
| Cn1cc(-c2cnc3cnn(S(=O)(=O)c4cnc5ccc(-c6cnn(C)c6)cn45)c3c2)cn1 [Glumetinib] (10 µM) | 0 | 0 | 0 | 0 | 0 | 0 | 0 | 0 | 0 | 0 |
| N#Cc1ccnc(Nc2cc(C3CCN(C4COC4)CC3)cc(N3CCC(F)(F)C3)n2)c1 (2.5 µM) | 0 | 0 | 0 | 0 | 0 | 0 | 0 | 0 | 0 | 0 |
| CC(=O)N1CCC(c2cc(-c3ccc(NC(=O)c4cccn(-c5ccc(F)cc5)c4=O)cc3F)c3c(N)ncnn23)CC1 (0.5 µM) | 0 | 0 | 0 | 0 | 0 | 0 | 0 | 0 | 0 | 0 |
| Cn1cc(C2=C(c3cn(CCCSC(=N)N)c4ccccc34)C(=O)NC2=O)c2ccccc21 [Ro 31-8220 (mesylate)] (2.5 µM) | 0 | 0 | 0 | 0 | 0 | 2 | 2 | 0 | 0 | 0 |
| CNC(=O)c1ccccc1Nc1nc(Nc2ccc3c(c2OC)CCC[C@H](N2CCN(CCO)CC2)C3)ncc1Cl (10 µM) | 0 | 0 | 0 | 0 | 0 | 4 | 4 | 1 | 1 | 2 |

| Structure (SMILES) | number of time points (NTRK3) | number of time points (PAK4) | number of time points (PBK) | number of time points (PDGFRB) | number of time points (PDK1) | number of time points (PDPK1) | number of time points (PIK4CA) | number of time points (PIK4CB) | number of time points (PLK1) | number of time points (PRKAA1) |
| --- | --- | --- | --- | --- | --- | --- | --- | --- | --- | --- |
| CCCNC(=O)Nc1ccc(Oc2ncnc3cc(OC)c(OC)cc23)cc1Cl (2.5 µM) | 0 | 0 | 0 | 0 | 0 | 0 | 0 | 0 | 0 | 0 |
| CNc1nc(Nc2ccc(C(=O)N3CCOCC3)cc2OC)ncc1Cl (2.5 µM) | 0 | 0 | 0 | 0 | 0 | 0 | 0 | 0 | 0 | 0 |
| C=CCc1ccc(O)c(-c2ccc(O)c(CC=C)c2)c1 [Honokiol] (10 µM) | 0 | 0 | 0 | 0 | 0 | 0 | 0 | 0 | 0 | 0 |
| CCc1cncnc1N1CCN(Cc2nc3ccc(C(F)(F)F)cc3[nH]2)CC1 (10 µM) | 0 | 0 | 0 | 0 | 0 | 0 | 0 | 0 | 0 | 0 |
| Cc1ccc(C(=O)Nc2sc(Nc3ccccc3)nc2C(N)=O)cc1 (10 µM) | 0 | 0 | 0 | 0 | 0 | 0 | 0 | 0 | 0 | 0 |
| O=C1/C(=C\c2ccc(Cl)cc2)C=C(c2ccccc2)N1c1ccc(O)cc1 (2.5 µM) | 0 | 0 | 0 | 0 | 0 | 0 | 0 | 0 | 0 | 0 |
| COc1ccccc1C(=O)/C=C/c1ccccc1C(=O)O (10 µM) | 0 | 0 | 0 | 0 | 0 | 0 | 0 | 0 | 0 | 0 |
| C=CC(=O)Nc1cccc(CNc2nc(Nc3ccc(N4CCN(C)CC4)cc3OC)ncc2Cl)c1 (10 µM) | 0 | 0 | 0 | 0 | 0 | 0 | 0 | 0 | 0 | 0 |
| O=c1cc(N2CCOCC2)nc2c3ccccc3ccn12 [Compound 401] (10 µM) | 0 | 0 | 0 | 0 | 0 | 0 | 0 | 0 | 0 | 0 |
| Cn1cc(C2=C(c3cccc(N)c3)C(=O)NC2=O)c2ccccc21 (10 µM) | 0 | 0 | 0 | 0 | 0 | 0 | 0 | 0 | 0 | 0 |
| O=[N+]([O-])c1ccc(Nc2nc(N3CCOCC3)nc(N3CCOCC3)n2)cc1 (10 µM) | 0 | 0 | 0 | 0 | 0 | 0 | 0 | 0 | 0 | 0 |
| CC[C@@](C)(Nc1ccnc(-c2c[nH]c3ncccc23)n1)C(=O)NCC(F)(F)F [Decernotinib] (10 µM) | 0 | 0 | 0 | 0 | 0 | 0 | 0 | 0 | 0 | 0 |
| Nc1n[nH]c2nc(-c3ccc(NS(=O)(=O)c4cc(Cl)ccc4F)cc3)cnc12 (10 µM) | 0 | 0 | 0 | 0 | 0 | 0 | 0 | 0 | 0 | 0 |
| COc1cc2ncnc(-n3nc(-c4ccccn4)nc3N)c2cc1OC (10 µM) | 0 | 0 | 0 | 0 | 0 | 0 | 0 | 0 | 0 | 0 |
| Cn1cc2cc(C(F)(F)c3nnc4ccc(-c5cnn(C6CC6)c5)nn34)c(F)cc2n1 [Bozitinib] (10 µM) | 0 | 0 | 0 | 0 | 0 | 0 | 0 | 0 | 0 | 0 |
| O=C(O)c1cccc(CN2C(=O)/C(=C(\c3ccccc3)c3ccc(Cl)cc3)c3ccccc32)c1 (2.5 µM) | 0 | 0 | 0 | 0 | 0 | 0 | 0 | 0 | 0 | 0 |
| Cc1ccc2c(Nc3cccc(Cl)c3F)nccc2c1NC(=O)c1csc2c(N)ncnc12 [Belvarafenib] (10 µM) | 0 | 0 | 0 | 0 | 0 | 0 | 0 | 0 | 0 | 0 |
| CC(=O)c1c(C)c2cnc(Nc3ccc(N4CCN(C(=O)CNc5cccc6c5C(=O)N(C5CCC(=O)NC5=O)C6=O)CC4)cn3)nc2n(C2CCCC2)c1=O (stereo not given) (10 µM) | 0 | 0 | 0 | 0 | 0 | 0 | 0 | 0 | 0 | 0 |

Gathered by group: the compounds so far with a CF3 group (two)

| Structure (SMILES) | number of time points (NTRK3) | number of time points (PAK4) | number of time points (PBK) | number of time points (PDGFRB) | number of time points (PDK1) | number of time points (PDPK1) | number of time points (PIK4CA) | number of time points (PIK4CB) | number of time points (PLK1) | number of time points (PRKAA1) |
| --- | --- | --- | --- | --- | --- | --- | --- | --- | --- | --- |
| CCc1cncnc1N1CCN(Cc2nc3ccc(C(F)(F)F)cc3[nH]2)CC1 (10 µM) | 0 | 0 | 0 | 0 | 0 | 0 | 0 | 0 | 0 | 0 |
| CC[C@@](C)(Nc1ccnc(-c2c[nH]c3ncccc23)n1)C(=O)NCC(F)(F)F [Decernotinib] (10 µM) | 0 | 0 | 0 | 0 | 0 | 0 | 0 | 0 | 0 | 0 |
